In article doi:10.1101/526152 one finds binding data, which are given here for 3 substances.

Amino acid sequences for entries named in this document (tags omitted). A change or cut given only in a name is not applied to a line headed by its entry. Residues count along the entry.
UniProt P46940: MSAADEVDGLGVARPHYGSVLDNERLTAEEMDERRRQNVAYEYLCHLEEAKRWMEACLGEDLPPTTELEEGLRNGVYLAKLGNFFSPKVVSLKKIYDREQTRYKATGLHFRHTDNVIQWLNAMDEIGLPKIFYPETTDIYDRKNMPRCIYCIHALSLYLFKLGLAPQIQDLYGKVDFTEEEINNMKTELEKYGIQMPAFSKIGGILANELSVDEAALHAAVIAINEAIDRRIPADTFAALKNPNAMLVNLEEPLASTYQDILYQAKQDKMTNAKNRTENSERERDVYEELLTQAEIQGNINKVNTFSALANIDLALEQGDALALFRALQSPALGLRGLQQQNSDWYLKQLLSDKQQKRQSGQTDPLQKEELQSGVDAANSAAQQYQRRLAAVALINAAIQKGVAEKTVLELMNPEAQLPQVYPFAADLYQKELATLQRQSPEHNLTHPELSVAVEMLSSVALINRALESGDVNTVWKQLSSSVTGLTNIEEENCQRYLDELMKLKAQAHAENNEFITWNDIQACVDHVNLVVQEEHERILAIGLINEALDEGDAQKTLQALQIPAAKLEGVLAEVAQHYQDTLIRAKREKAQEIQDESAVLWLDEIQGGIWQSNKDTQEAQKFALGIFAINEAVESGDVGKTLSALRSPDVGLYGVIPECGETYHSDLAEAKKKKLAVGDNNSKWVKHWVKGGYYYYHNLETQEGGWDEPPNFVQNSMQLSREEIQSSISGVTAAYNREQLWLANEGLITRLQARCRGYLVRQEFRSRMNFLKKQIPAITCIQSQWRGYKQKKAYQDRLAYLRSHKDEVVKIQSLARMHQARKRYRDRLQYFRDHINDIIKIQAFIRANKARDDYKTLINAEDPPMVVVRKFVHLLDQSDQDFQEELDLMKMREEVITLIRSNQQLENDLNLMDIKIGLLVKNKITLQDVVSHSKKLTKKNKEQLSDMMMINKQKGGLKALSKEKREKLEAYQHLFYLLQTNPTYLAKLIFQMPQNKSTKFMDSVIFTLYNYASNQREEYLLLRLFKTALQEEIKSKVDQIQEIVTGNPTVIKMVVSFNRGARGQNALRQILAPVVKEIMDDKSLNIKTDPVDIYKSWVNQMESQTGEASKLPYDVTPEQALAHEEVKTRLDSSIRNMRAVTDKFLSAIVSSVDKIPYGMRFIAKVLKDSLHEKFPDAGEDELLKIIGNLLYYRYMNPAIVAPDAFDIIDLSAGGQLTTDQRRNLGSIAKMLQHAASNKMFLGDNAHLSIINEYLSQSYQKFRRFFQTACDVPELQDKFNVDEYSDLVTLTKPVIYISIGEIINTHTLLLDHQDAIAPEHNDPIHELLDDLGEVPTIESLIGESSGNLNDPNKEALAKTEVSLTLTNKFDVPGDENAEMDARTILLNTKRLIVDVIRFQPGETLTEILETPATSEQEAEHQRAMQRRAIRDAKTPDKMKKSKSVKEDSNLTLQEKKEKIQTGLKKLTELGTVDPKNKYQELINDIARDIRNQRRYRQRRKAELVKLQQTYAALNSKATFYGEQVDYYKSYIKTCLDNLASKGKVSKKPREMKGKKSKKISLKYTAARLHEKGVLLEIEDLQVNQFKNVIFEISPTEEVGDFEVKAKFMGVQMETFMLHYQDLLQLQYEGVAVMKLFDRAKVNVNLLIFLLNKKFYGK
GST-IQGAP1-N (aa 1–863): residues 1-863 of P46940
GST-IQGAP1-C (aa 746–1657): residues 746-1657 of P46940

For assay [1], the target named is GST-IQGAP1-C (aa 746–1657) (human) (UniProt P46940). The assay can be described thus: pull-down.
Assay [2] deals with GST-IQGAP1-N (aa 1–863) (human) (UniProt P46940). The assay can be described thus: pull-down.
The target of assay [3] is IQ motif-containing GTPase-activating protein 1 (IQGAP1) (human (endogenous in skin fibroblasts)) (UniProt P46940). The experiment in a line: co-IP.

No constants are given. Whether binding was seen depends on the method and setting. In cells and extracts the contact can be indirect. For some assays here: Binding calls can cover weak binding; strength is not graded here.

As to “p122RhoGAP/DLC-1 (1–801) (from UniProt Q96QB1-2) (domain or fragment)”, the binding entry in assay [1] and in assay [2] was “no binding” in each case.
With “p122RhoGTPase-activating protein (GAP)/deleted in liver cancer-1 (p122RhoGAP/DLC-1) (from UniProt Q96QB1-1)”, the binding entry in assay [3] is given as “binds”.
As for “p122RhoGAP/DLC-1 (1–546) (from UniProt Q96QB1-2) (domain or fragment)”, the binding result in assay [1] and in assay [2] was “no binding” in each case.
